Test results as given in PubChem BioAssay (NCATS).
Most of the hits are listed elsewhere, so they are rarer here than in the full data. Results filed as inconclusive are left out. Activity calls are given as the source filed them. Calls come from the whole dose curve; as a rule, active = well fitted curve in the direction sought with a large enough effect; inconclusive = small, poorly fitted or top-dose-only effect, or another doubt; inactive = no such curve, though single readings can be large; an effect the other way counts as inactive or inconclusive.

Experiments:
[1] = Cell Viability - LYMP1-003 - Assay at 24 hr (AID 963); conditions: LYMP1-003 lymphoblastoid cell viability; at 92.2 µM (top of the series);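 note: plate controls were DMSO only for no effect and tetraoctylammonium bromide positive control for full effect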
Outline: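 CellTiter-Glo luminescence (intracellular ATP) read after 24 hr, 37 C compound exposure of 2500 LYMP1-003 human lymphoblastoid cells/well in complete medium; qHTS concentration series; AC50 via standard Hill equation.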

[2] = Cell Viability - LYMP1-003 - Assay at 40 hr (AID 964); conditions: LYMP1-003 lymphoblastoid viability; at 92.2 µM (top of the series); note: % is set by controls: 0 for no effect and ±100 for the full control effect; nearly all actives have a fitted effect of over 60% in size
Outline: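 LYMP1-003 lymphoblastoid cells, 2500/well; 5 hr preincubation, 40 hr compound exposure, 37 C; CellTiter-Glo 30 min RT; luminescence; Hill-fit AC50. Positive control tetraoctylammonium bromide.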

[3] = Cell Viability - LYMP2-004 (AID 966); conditions: LYMP2-004 lymphoblastoid cell viability, qHTS; at 92.2 µM (top of the series);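 note: plate controls were DMSO only for no effect and tetraoctylammonium bromide control for full effect; nearly all actives have a fitted effect of over 65% in size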
Outline: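 Luminescent ATP read-out (CellTiter-Glo, 30 min RT) after 24 hr compound exposure at 37 C; 2500 lymphoblastoid cells/well, complete medium. Decrease in ATP = cytotoxicity; AC50 from standard Hill model.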

[4] = Cell Viability - LYMP2-011 (AID 969); conditions: LYMP2-011 lymphoblastoid cells viability; at 92.2 µM (top of the series);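 note: cells exposed to compound for 24 hours; 0% = DMSO only and full inhibition = 92 µM tetraoctylammonium bromide; nearly all actives have a fitted effect of over 60% in size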
Outline: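 Luminescent ATP read-out (CellTiter-Glo, 30 min RT) after 24 hr compound exposure at 37 C in human lymphoblastoid cells, 2500 cells/well. Decreasing ATP indicates cytotoxicity; AC50 from standard Hill fit.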

[5] = Cell Viability - LYMP2-013 (AID 970); conditions: LYMP2-013 lymphoblastoid cells viability; at 92.2 µM (top of the series);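 note: 0% = DMSO only and full inhibition = tetraoctylammonium bromide control; nearly all actives have a fitted effect of over 55% in size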
Outline: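 CellTiter-Glo luminescence (cellular ATP) read after 30 min at RT. Cells: human lymphoblastoid line, 2500/well, 24 hr compound exposure at 37 C. Tetraoctylammonium bromide positive control; AC50 via standard Hill fit of qHTS titrations.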

[6] = Cell Viability - LYMP2-017 (AID 972); conditions: LYMP2-017 lymphoblastoid cell viability; at 92.2 µM (top of the series);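 note: cells exposed to compound for 24 hours at 37 °C; % is set by controls: 0 for no effect and ±100 for the full control effect; nearly all actives have a fitted effect of over 55% in size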
Outline: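 Luminescent ATP read-out (CellTiter-Glo, 30 min RT) reports viable cell number. Cells: human lymphoblastoid line, 2500 per well, 5 hr preincubation, 24 hr compound exposure at 37 C. AC50 is derived from qHTS concentration-response data using the standard Hill model.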

[7] = Cell Viability - LYMP2-019 (AID 973); conditions: LYMP2-019 lymphoblastoid cell line viability; at 92.2 µM (top of the series);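 note: 0% = DMSO alone and full effect = 92 µM tetraoctylammonium bromide; nearly all actives have a fitted effect of over 55% in size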
[8] = Cell Viability - LYMP2-021 (AID 974); conditions: LYMP2-021 lymphoblastoid cells viability; at 92.2 µM (top of the series);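 note: compound exposure lasts 24 hours at 37 °C; % is set by controls: 0 for no effect and ±100 for the full control effect; nearly all actives have a fitted effect of over 55% in size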
Outline: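 ATP luminescence (CellTiter-Glo, 30 min RT) after 24 h compound exposure at 37 C; 2500 human lymphoblastoid cells/well, 5 h settle beforehand. Cytotoxicity = concentration-dependent ATP drop, AC50 by Hill fit.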

[9] = Cell Viability - LYMP2-023 (AID 975); conditions: LYMP2-023 lymphoblastoid cell viability; at 92.2 µM (top of the series)
Outline: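 CellTiter-Glo luminescence after 30 min at room temperature; decrease in intracellular ATP reflects toxicity. Cells: human lymphoblastoid line, 2500/well, 24 hr compound exposure at 37 C. AC50 fitted to standard Hill equation from concentration-response.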

[10] = Cell Viability - LYMP2-003 (AID 965); conditions: LYMP2-003 lymphoblastoid cell viability; at 92.2 µM (top of the series);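 note: cells exposed to compounds for 24 h before reading; 0% = DMSO only and full effect = 92 µM tetraoctylammonium bromide; nearly all actives have a fitted effect of over 50% in size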
Outline: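 CellTiter-Glo luminescence (cellular ATP) after 24 h compound exposure at 37 C in complete medium; 2500 cells/well, 5 h settling beforehand. Concentration-response fitted to standard Hill equation for AC50. Tetraoctylammonium bromide served as positive control.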

Cc1ccc2ccccc2c1C
inactive: viability change, negative = cytotoxic [1] -3.75% | activity change, negative = cytotoxic [2] 6.04% | activity change, negative = cytotoxicity [3] 7.77% | viability change, negative = cytotoxic [4] 1.71% | activity change, negative = cytotoxic [5] 1.29% | activity change, negative = cytotoxicity [6] -1.21% | activity change, negative = cytotoxicity [7] -5.12% | activity change, negative = cytotoxicity [8] -4.63% | activity change, negative = cytotoxicity [9] -2.59%

O=[N+]([O-])c1ccccc1Cl
inactive: viability change, negative = cytotoxic [1] 8.25% | activity change, negative = cytotoxic [2] 2.12% | activity change, negative = cytotoxicity [10] -0.599% | activity change, negative = cytotoxicity [3] -9.84% | viability change, negative = cytotoxic [4] -0.37% | activity change, negative = cytotoxic [5] -2.24% | activity change, negative = cytotoxicity [6] 1.2% | activity change, negative = cytotoxicity [7] -0.0501% | activity change, negative = cytotoxicity [8] -1.42% | activity change, negative = cytotoxicity [9] 0.173%

Oc1c(Cl)cc(Cl)cc1Cl
inactive: viability change, negative = cytotoxic [1] 0.147% | activity change, negative = cytotoxic [2] -3.68% | activity change, negative = cytotoxicity [10] -1.88% | activity change, negative = cytotoxicity [3] -14.2% | viability change, negative = cytotoxic [4] -8.48% | activity change, negative = cytotoxic [5] -10.4% | activity change, negative = cytotoxicity [6] 0.829% | activity change, negative = cytotoxicity [7] -3.3% | activity change, negative = cytotoxicity [8] -3.67% | activity change, negative = cytotoxicity [9] -1.59%

Cc1ccc(O)cc1C
inactive: viability change, negative = cytotoxic [1] -0.779% | activity change, negative = cytotoxic [2] -4.59% | activity change, negative = cytotoxicity [10] 6.98% | activity change, negative = cytotoxicity [3] 5.64% | viability change, negative = cytotoxic [4] -4.83% | activity change, negative = cytotoxic [5] -2.15% | activity change, negative = cytotoxicity [6] -9.07% | activity change, negative = cytotoxicity [7] -6.67% | activity change, negative = cytotoxicity [8] 0.195% | activity change, negative = cytotoxicity [9] -2.37%
